The test deals with Ca2+-ATPase 1 from Listeria monocytogenes (LMCA1), wild type (Listeria monocytogenes) (UniProt Q8Y8Q5). In words: SEC; Superdex 200 10/300 in 50 mM Tris-HCl, 150 mM KCl, pH 7.6; LMCA1 reconstituted in saposin A nanodiscs with brain extract lipids; monomeric fraction separated from aggregates and empty discs; both purified.

These are yes or no findings as the source states them, for the method shown.

B1: Ca2+-ATPase 1 from Listeria monocytogenes (LMCA1), wild type (enzyme, UniProt Q8Y8Q5 2-880)
chain: EIYRKSAAETFTQLEATEKGLTTSEVTKRQEKYGFNELKNKKKDPLWKLFLETFKDPMVIVLVIAALVQLVLGEVVESLIIFLVLIVNSIISVVQTRKAESSLDALREMSAPVAKVIRDGSKQSIHARELVPGDVVILDAGDFVPADGRLFESGSLKIDEGMLTGESEAVEKYIDTIPDEVGLGDRVNMVFSGSLVVYGRGMFVVTGTASETEIGKIAGLLETAEAKQTPLQRKLESFSKKLGLGILALCVLIFAVEAGRVLLGDNSADMATAILNAFMFAVAVAVAAIPEALSSIVTIVLAVGTNKMAKQHAIIRKLPAVETLGSTSVICTDKTGTLTQNKMTVVDYYLPDGTKENFPESPENWSEGERRLIHIAVLCNDSNINSEGKELGDPTEVALIAFSNKNNQDYNEIREKFIREGEIPFDSDRKLMSTLHTFNENKAMLTKGGPDVMFARCSYVFLDGEEKPMTEEILAKLKETNEEFSNQALRVLAYGYKRMPADTTELKLEDEQDIVLVGLTAMIDPPREAVYASIEESKKAGIRTVMITGDHKTTAQAIGRDIGLMDADDIALTGQELDAMPEEELDKKLEHIAVYARVSPENKIRIVKAWQKKGKITAMTGDGVNDAPALKQADIGVAMGSGTDVAKDSAAMILTDDNFVSIVDAVGVGRTVFDNIKKSIAYLFAGNLGAIIAILFALVLDWINPFTALQLLFINLVNDSLPAIALGMEKAEPDVMKRKPRDINEGIFAGGTMRAVISRGVLIGIAVIISQYIGMQISPEMSVAMAFTTLILARTLQTFAARSNVQTAFGAGFFSNKYVIGAVLLCFVLYGITVLPGAREIFSIPASFGLHEWSIAAGLALAAVVMMEIIKVVQNKFFK
As to B1, the binding entry is given as “no binding”.
